Data: US8242142B2, “Cyclohexylamines, phenylamines and uses thereof” (The Regents of the University of California, priority 2008, dated 2012)
Some of these results come from one statement about several compounds together.

Tested on: Shh-LIGHT2 cells
Assay: Compound activities in Shh-LIGHT2 cells (Gli-dependent luciferase reporter)
Format: cell-based
Details: Shh-N-conditioned medium, luciferase reporter activity
Protocol: Shh-LIGHT2 cells (ATCC CRL-2795), a NIH-3T3 cell line stably incorporating Gli-dependent firefly luciferase and thyrmidine kinase promoter-driven Renilla luciferase reporters (Taipale J, Chen J K, Cooper M K, Wang B. Mann R K, Milenkovic L. et al. “Effects of oncogenic mutations in Smoothened and Patched can be reversed by cyclopamine” Nature 2000; 406:1005-9; incorporated herein by reference), were cultured to confluency in 96-well plates using DMEM medium containing 10% calf serum, 100 U/mL penicillin, and 100 μg/mL streptomycin. The cells were then treated with various concentrations of the compounds in DMEM containing 0.5% calf serum and a 1:20 dilution of Shh-N-conditioned medium (Chen J. K., Taipale J. Young K. E., Maiti T Beachy P. A., “Small molecule modulation of Smoothened activity” Proc. Natl. Acad. Sci. U.S.A., 2002; 99:14071-6; incorporated herein by reference). The cells were cultured for an additional 30 h under standard conditions. Firefly and Renilla luciferase activities were measured on a Veritas luminometer (Turner Biosystems) using a dual luciferase kit (Promega) according to the manufacturers' protocols.

CCCN[C@H]1CC[C@H](N(Cc2cccc(-c3ccncc3)c2)C(=O)c2sc3ccccc3c2Cl)CC1 [SANT75, 3-chloro-N-(trans-4-(propylamino)cyclohexyl)-N-(3-(pyridin-4-yl)benzyl)benzo[b]thiophene-2-carboxamide]
IC50: 20 to 50 nM
